{"source": "patent US7897591B2", "about": "“Method of treating fatty liver disease” (priority 2005, dated 2011)", "tested_on": "C57BL/6 mice", "test": "Fatty acid analysis of serum and liver lipids (triglycerides, phospholipids) in HCD mouse model", "format": "in vivo", "details": "HCD+MAR mice; >0.2 = essential fatty acid deficiency; mean±SEM", "experimental": "Experiments were performed on 5-6 week-old C57BL/6 mice (Jackson Laboratories, Bar Harbor, Me.). The animals, in groups of five, were housed in a barrier room and were acclimated to their environment for at least 72 hours prior to the initiation of each experiment. Animal protocols complied with the NIH Animal Research Advisory Committee guidelines and were approved by the Children's Hospital Boston Animal Care and Use Committee. Control animals (n=5) received normal chow and water ad libitum. All animals in the experimental groups were fed a fat-free, high carbohydrate liquid diet (HCD) ad libitum placed in one bottle per cage as previously described (3, 62). No additional sources of nutrition or hydration were provided. The HCD liquid solution contained 20% dextrose, a commercial mixture of 2% essential and nonessential amino acids (TrophAmine, B. Braun Medical, Irvine, Calif.), 2 ml trace elements (Trace Elements Injection 4, USP—Pediatric, American Regent Shirley, N.Y.), and 5 ml multivitamins (M.V.I. Pediatric™, Mayne Pharma, Paramus, N.J.). Each liter of HCD contained 30 meq sodium, 20 meq potassium chloride, 15 meq calcium, 10 meq magnesium, and 10 mM phosphate. The bottles were replaced daily with fresh HCD solution. HCD animals (n=5) received HCD only and no additional treatment for 19 days. […]"}
{"smiles": "CNC(=O)[C@@H](NC(=O)[C@H](CC(C)C)[C@H](O)C(=O)NO)C(C)(C)C", "note": "[Marimastat]", "values": [{"measurement": "Mead acid:Arachidonic acid ratio (M:A) in serum lipid", "result": "0.47±0.08"}]}
